Data from article PMC3642088, “Phosphorylation of CDK9 at Ser175 Enhances HIV Transcription and Is a Marker of Activated P-TEFb in CD4^+ T Lymphocytes” (PLoS Pathogens, 2013).
These are yes or no findings as the source states them, for the method shown. Binding seen in cells or lysates may run through a third protein. A yes stands for co-enrichment or nearness to the bait. Other partners may have been found. Blank lines part the entries; values can stand above or below the molecule they belong to.

Amino acid sequences for entries named in this document (tags omitted). A change or cut given only in a name is not applied to a line headed by its entry. Chains listed by the source or under a name are the forms on record and can include a tag or linker.
UniProt P50750: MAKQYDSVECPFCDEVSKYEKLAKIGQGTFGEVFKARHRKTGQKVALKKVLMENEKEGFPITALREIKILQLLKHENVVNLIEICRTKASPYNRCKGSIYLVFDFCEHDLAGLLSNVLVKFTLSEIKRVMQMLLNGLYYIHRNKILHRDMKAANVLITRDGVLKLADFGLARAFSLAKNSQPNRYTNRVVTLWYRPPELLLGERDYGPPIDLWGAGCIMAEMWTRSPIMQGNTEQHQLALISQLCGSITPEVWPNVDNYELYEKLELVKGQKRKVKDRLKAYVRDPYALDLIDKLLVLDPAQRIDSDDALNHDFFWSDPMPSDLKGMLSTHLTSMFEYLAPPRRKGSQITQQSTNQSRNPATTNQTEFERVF
CDK9 Isoform 2 (117 amino acid extension at N-Terminus) (P50750-2, form named): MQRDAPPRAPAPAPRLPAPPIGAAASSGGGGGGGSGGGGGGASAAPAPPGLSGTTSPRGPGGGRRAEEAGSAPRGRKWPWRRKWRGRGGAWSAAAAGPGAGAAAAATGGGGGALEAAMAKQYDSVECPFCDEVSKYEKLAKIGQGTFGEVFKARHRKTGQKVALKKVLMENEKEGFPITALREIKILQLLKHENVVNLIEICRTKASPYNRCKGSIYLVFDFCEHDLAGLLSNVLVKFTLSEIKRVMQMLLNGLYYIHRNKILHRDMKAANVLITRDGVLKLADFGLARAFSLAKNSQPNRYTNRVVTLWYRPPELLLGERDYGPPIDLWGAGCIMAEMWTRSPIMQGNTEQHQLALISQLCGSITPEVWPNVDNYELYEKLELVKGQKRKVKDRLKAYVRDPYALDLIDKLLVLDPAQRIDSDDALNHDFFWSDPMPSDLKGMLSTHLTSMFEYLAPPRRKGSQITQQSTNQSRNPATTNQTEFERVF

Molecular target: FLAG-CDK9 isoform 1, wild type (human) (UniProt P50750)
Assay: affinity purification with mass spectrometry; FLAG-CDK9 complexes from whole cell extracts of Jurkat 2D10 cells (untreated, PMA or TCR stimulated) on anti-FLAG M2 agarose overnight at 4°C, lysis buffer A or RIPA buffer, eluted with FLAG peptide, SDS-PAGE bands analysed by nano LC-MS/MS

binding: binds
Molecule: CDK9 Isoform 2 (117 amino acid extension at N-Terminus) (from UniProt P50750-2 1-489) (enzyme)

binding: binds
B1: HEXIM2 (protein, UniProt Q96MH2 1-286)
chain: MMATPNQTACNAESPVALEEAKTSGAPGSPQTPPERHDSGGSLPLTPRMESHSEDEDLAGAVGGLGWNSRSPRTQSPGGCSAEAVLARKKHRRRPSKRKRHWRPYLELSWAEKQQRDERQSQRASRVREEMFAKGQPVAPYNTTQFLMNDRDPEEPNLDVPHGISHPGSSGESEAGDSDGRGRAHGEFQRKDFSETYERFHTESLQGRSKQELVRDYLELEKRLSQAEEETRRLQQLQACTGQQSCRQVEELAAEVQRLRTENQRLRQENQMWNREGCRCDEEPGT
